Protein sequences, listed by entry. Tags and fused reporters are not part of them.
UniProt P20309, whole entry: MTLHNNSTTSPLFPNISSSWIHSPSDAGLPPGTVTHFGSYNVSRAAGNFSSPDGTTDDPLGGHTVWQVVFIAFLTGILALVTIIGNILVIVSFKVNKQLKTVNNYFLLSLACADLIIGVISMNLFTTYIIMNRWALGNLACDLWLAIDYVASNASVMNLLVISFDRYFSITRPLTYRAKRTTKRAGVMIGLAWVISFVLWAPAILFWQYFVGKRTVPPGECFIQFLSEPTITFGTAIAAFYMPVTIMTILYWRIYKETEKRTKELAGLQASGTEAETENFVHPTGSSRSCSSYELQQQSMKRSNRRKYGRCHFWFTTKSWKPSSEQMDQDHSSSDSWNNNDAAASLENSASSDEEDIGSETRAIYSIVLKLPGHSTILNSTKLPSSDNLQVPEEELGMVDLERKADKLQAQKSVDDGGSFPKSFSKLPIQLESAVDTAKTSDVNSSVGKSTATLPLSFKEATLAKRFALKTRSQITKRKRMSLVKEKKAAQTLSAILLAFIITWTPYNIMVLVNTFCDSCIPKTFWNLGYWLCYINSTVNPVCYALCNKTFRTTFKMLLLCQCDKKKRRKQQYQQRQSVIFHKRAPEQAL

According to article PMC5384254, “Discovery of new muscarinic acetylcholine receptor antagonists from Scopolia tangutica” (Scientific Reports, 2017):

Target: M3 receptor (Homo sapiens, UniProt P20309)
Experiment: two-step DMR assay, pure compounds, on endogenous M3 receptor in HT-29 cells

## CN1[C@@H]2C[C@@H](OC(=O)[C@H](CO)c3ccccc3)C[C@H]1[C@@H]1O[C@@H]12 [Compound 1, scopolamine, reference compound]
  IC50: 40 ± 10 nM
